No constants are given. Whether binding was seen depends on the method and setting. Binding seen in cells or lysates may run through a third protein. These calls come from enrichment with a bait or labelling near it, and not all partners need be listed.
Target: phosphorylated RIP2 (Ser 176), receptor-interacting protein 2 (human (endogenous in human platelets)) (UniProt O43353)
Experiment: affinity purification with mass spectrometry

By UniProt entry, the sequences of proteins in these tests, tags left out.
UniProt O43353: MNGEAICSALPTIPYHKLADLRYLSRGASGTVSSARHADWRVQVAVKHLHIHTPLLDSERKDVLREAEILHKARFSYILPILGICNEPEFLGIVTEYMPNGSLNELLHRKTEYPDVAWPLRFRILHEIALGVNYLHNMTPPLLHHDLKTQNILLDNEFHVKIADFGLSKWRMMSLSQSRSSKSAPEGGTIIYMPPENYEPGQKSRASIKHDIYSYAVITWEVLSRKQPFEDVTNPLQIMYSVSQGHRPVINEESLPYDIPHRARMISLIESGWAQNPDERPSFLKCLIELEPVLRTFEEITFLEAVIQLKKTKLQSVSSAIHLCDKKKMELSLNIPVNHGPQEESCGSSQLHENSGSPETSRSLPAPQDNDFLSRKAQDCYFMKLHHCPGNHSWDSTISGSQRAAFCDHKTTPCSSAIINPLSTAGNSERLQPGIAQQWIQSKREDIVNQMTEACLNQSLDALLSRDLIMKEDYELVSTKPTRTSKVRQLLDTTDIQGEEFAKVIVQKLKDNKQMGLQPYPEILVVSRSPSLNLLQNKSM
UniProt Q8NF50: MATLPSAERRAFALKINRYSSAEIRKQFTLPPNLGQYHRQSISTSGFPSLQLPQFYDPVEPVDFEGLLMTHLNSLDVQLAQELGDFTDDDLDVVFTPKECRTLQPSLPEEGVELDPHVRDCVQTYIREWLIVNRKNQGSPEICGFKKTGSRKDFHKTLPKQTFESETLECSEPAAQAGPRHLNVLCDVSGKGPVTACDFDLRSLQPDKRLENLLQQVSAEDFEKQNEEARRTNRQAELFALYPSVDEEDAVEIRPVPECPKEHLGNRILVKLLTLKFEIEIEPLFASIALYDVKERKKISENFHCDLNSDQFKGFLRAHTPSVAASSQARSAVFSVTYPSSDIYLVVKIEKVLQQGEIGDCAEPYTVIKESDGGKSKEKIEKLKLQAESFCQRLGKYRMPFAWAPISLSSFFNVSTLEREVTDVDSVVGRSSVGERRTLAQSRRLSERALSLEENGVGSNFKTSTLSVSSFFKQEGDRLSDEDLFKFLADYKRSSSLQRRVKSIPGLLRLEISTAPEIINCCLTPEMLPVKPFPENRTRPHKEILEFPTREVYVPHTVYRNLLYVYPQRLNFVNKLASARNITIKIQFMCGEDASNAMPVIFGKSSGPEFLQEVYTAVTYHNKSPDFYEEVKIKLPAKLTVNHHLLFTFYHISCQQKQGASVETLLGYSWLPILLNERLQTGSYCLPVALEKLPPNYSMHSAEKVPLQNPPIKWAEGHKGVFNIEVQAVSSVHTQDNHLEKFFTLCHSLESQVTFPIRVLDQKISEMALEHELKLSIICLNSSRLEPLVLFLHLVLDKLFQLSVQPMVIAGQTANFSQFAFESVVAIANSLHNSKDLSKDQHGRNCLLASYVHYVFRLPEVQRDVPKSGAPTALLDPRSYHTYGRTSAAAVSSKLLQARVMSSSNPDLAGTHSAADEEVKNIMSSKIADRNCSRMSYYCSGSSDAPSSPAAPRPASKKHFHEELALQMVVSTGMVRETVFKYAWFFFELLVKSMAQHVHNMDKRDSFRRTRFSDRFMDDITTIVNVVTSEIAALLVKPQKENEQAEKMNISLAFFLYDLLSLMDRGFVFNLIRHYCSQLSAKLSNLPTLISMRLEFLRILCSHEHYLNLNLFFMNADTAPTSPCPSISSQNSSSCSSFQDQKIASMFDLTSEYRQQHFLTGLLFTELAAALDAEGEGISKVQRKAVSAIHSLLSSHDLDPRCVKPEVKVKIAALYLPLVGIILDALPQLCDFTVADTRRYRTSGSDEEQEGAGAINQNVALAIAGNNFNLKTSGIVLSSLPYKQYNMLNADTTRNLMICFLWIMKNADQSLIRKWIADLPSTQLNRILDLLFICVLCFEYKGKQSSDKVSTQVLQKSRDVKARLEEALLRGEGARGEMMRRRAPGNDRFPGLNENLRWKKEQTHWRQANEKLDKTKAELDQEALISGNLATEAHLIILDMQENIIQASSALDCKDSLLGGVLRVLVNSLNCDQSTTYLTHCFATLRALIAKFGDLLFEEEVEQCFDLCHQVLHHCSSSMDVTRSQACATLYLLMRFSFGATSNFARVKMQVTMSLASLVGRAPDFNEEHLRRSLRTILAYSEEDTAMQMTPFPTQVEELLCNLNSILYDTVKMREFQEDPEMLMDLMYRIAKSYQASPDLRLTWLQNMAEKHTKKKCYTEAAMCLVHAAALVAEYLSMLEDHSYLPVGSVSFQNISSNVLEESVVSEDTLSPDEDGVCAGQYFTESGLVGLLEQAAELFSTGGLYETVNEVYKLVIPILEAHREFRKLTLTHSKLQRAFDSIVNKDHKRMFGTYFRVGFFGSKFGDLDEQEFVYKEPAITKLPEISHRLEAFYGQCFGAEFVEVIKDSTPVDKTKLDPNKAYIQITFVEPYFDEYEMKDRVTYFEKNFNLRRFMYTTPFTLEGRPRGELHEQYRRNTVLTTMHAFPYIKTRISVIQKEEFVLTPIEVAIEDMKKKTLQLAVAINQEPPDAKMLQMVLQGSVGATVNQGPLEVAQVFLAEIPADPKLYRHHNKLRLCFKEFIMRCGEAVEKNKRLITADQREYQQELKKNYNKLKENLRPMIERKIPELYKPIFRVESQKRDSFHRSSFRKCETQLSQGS

**Q.** With “DOCK8 (dedicator of cytogenesis protein 8) (from UniProt Q8NF50 1-2099)” as the substance, how does the binding read?
**A.** binds
